Construct, isoform or probe ends are uncertain for at least one entry. Weaker means in comparison with the reference protein, sequence or condition of that experiment. Where a protein sequence is shown, tags need not be part of it.
Target: T1, IRF1 DBD-mNeonGreen (UniProt P10914)
T1 sequence (looked up): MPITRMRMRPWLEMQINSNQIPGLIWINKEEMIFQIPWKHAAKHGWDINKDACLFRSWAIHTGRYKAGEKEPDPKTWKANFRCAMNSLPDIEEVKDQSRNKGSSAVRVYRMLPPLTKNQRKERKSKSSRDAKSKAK
Test: mass photometry
Details: 1:1 protein:DNA, slight increase to ~50 kDa, likely minor nonspecific interactions, 1:1 molar protein:DNA, 4 h at room temperature, protein lysed in PBS with 360 mM NaCl, 10% glycerol, DTT (assay buffers and pH not given), PBM: PBS, recombinant protein, residues 1-136, protein details: mNeonGreen fusion (42 kDa total)

Sequence: ATATTACGTCGCACTAGGATAGATCT (double strand) [scrambled DNA (NS)]
- binding result: binds more weakly
